This note sets out measurements from EP4803139A2.

The target of the assay is human PCSK9 (proprotein convertase subtilisin/kexin type 9), wild type (human). Put plainly: BIAcore solution equilibrium assay, 21B12 immobilised on CM5.

No constants are given. Whether binding was seen depends on the method and setting. A result given as binding can be weak or reduced; the word gives no strength.

B1: 21B12, anti-PCSK9 huIgG4 (antibody, V domains shown)
VH: QVQLVQSGAEVKKPGASVKVSCKASGYTLTSYGISWVRQAPGQGLEWMGWVSFYNGNTNYAQKLQGRGTMTTDPSTSTAYMELRSLRSDDTAVYYCARGYGMDVWGQGTTVTVSS
VL: QSALTQPASVSGSPGQSITISCTGTSSDVGGYNSVSWYQQHPGKAPKLMIYEVSNRPSGVSNRFSGSKSGNTASLTISGLQAEDEADYYCNSYTSTSMVFGGGTKLTVLQ
Regarding B1, the binding entry is reported as “binds”.
